The values below are quoted from earlier work in PMC8491162, “Targeting the JAK/STAT Pathway: A Combined Ligand- and Target-Based Approach” (Journal of Chemical Information and Modeling, 2021).

Chains of the proteins cited; added tags and fusions are not shown. Lines headed by an entry give the natural chain unless they say otherwise; changes in a name come on top.
UniProt O60674: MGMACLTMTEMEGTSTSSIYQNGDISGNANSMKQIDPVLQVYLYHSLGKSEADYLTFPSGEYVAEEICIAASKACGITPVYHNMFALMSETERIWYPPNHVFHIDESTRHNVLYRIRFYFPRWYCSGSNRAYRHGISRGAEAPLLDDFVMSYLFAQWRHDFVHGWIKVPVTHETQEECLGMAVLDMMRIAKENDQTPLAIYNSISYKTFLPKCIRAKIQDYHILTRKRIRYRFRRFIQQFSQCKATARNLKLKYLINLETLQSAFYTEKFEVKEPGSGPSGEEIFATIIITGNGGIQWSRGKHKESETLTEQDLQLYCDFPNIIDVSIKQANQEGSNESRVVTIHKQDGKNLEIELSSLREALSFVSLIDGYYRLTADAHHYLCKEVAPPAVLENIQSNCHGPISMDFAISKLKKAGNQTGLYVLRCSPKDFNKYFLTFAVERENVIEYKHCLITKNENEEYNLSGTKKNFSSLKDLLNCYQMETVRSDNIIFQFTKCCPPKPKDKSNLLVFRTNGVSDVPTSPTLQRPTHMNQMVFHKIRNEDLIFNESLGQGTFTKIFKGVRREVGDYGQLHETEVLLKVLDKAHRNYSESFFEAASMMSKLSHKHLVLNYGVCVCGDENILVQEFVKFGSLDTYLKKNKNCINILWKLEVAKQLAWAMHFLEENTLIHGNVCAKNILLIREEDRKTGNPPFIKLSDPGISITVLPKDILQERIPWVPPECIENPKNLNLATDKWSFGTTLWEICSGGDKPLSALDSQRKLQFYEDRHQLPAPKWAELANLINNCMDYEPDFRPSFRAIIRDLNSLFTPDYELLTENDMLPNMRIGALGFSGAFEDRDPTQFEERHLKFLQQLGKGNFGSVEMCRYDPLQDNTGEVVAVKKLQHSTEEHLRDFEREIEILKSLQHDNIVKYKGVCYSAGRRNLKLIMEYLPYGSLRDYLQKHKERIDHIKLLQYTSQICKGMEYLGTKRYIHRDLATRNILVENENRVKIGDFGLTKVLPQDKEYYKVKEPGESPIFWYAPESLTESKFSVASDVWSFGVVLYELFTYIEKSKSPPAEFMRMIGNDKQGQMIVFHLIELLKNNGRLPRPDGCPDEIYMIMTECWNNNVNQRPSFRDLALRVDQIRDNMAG

In this data set the target is T1, JAK2 (Homo sapiens, UniProt O60674).
T1 construct: purchased BPS Bioscience
Also noted: method as in earlier work. The following applies: Figure 13; read-out: IC50 of commercially available JAK2 inhibitors; cited from earlier work.

In the case of `CC(C)(O)C(=O)N1CCN(c2ccc(C(F)(F)F)c(C3=C(c4c[nH]c5ccccc45)C(=O)NC3=O)c2)CC1` [TCS21311], the IC50 (commonly the concentration at which inhibition is half-maximal) is 2600 nM.
